Measurements published in PubChem BioAssay AID588398 (Broad Institute, 2011).
Hit rate of the full screen: of about 1,200 compounds, about 110 (9.2%) were called active. Not shown: some 8% with an inconclusive outcome.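 How the source made its calls: active means pathway reporter half-maximal dose under half the control reporter's, or control reporter unaffected while pathway reporter is inhibited; inconclusive means either signal flat at 30 to 70% inhibition or poorly fitted; inactive means the rest.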 The list shows a part of the results, in another mix than the full data. Potency and affinity values are given separately.

Experiment: TES1-eGFP NF-kB reporter inhibition versus Tet-On dsRED, dose response, selectivity assay for LMP1 NF-kB inhibitor project, imaging, HEK293T, dual-color eGFP/dsRED, cherry-picks (AID 588398);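 further: 0% = median of neutral control wells and -100% = median of MG132 positive control wells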
Details: HEK293T Tet-On dsRED counter-screen channel, 48 h; at 19.5 µM (top of the series)

Compound | activity change, negative = inhibition
CC(=NNC(=S)N1CC2CCC(CC2)C1)c1nccs1 | inactive: -99.8%
O=c1[nH]c(CN2CC=C(c3ccccc3)CC2)nc2cc(C(F)(F)F)ccc12 | inactive: -1.87%
Cc1nc2ccccc2n1C1CCN(Cc2nnnn2CCc2ccccc2)CC1 | inactive: -0.604%
Cc1cc(C)n(-c2ccc(NN=C(C#N)C#N)cc2)n1 | inactive: -98.1%
O=C(CCCc1ccc(N(CCCl)CCCl)cc1)NCc1ccccc1 | inactive: 174%
O=C(N/N=C/c1c(O)n(C2CCCCC2)c(=S)[nH]c1=O)c1ccccc1O | inactive: 4.37%
CCN(CC)CCCN=Cc1c(O)n(Cc2ccc(F)cc2)c(=O)[nH]c1=O | inactive: -12.8%
O=C(NN=Cc1ccc(N(CCCl)CCCl)cc1)c1cccnc1 | inactive: -28.1%
O=C(NN=Cc1ccc(N(CCCl)CCCl)cc1Cl)c1cccnc1 | inactive: -97.6%
N#CC(C#N)=NNc1ccc(-n2ccc(C(F)(F)F)n2)cc1 | inactive: -85.3%
CC1(CCCc2ccc(N(CCCl)CCCl)cc2)NC(=O)NC1=O (stereo unspecified) | inactive: 13.3%
CC1(C(=O)O)CC12c1ccccc1-c1ccccc12 (stereo unspecified) | inactive: 11%
N#Cc1ncc(N=Cc2ccc(N(CCCl)CCCl)cc2)s1 | inactive: -58.8%
CCn1c(O)c(C=Nc2ccc(N3CCOCC3)c(Br)c2)c(=O)n(CC)c1=S | inactive: 10.6%
COC(=O)C1=C(c2ccc3ccccc3c2)C[C@@H]2CC[C@H]1N2C(=O)N1CCC(O)CC1 | inactive: 16.3%
CCN(CC)C(=O)c1ccc(NC(=O)Nc2ccccc2F)cc1 | inactive: 29.6%

Reprinted at random: 2 compounds from above.
Compound | activity change, negative = inhibition
CC(=NNC(=S)N1CC2CCC(CC2)C1)c1nccs1 | inactive: -99.8%
O=C(CCCc1ccc(N(CCCl)CCCl)cc1)NCc1ccccc1 | inactive: 174%
